Consider one molecule from paper PMC9529944, “Molecular asymmetry of a photosynthetic supercomplex from green sulfur bacteria” (Nature Communications, 2022).

In the experiment the target is T1, Fenna-Matthews-Olson (FMO) complex (Chlorobaculum tepidum (endogenous in C. tepidum TLS, DSM 12025)) (UniProt Q46393).
T1 sequence: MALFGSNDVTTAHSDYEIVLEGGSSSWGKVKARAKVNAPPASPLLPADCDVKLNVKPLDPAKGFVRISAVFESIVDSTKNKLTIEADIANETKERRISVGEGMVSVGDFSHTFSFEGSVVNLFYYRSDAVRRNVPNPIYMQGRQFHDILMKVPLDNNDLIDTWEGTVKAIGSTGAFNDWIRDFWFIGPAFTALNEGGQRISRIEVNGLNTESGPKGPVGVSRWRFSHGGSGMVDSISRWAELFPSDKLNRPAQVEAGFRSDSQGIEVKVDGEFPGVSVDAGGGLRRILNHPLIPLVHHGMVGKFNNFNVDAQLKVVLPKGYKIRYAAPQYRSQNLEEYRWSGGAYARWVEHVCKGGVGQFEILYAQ
In words: cryo-EM structure; single-particle cryo-EM of the native supercomplex extracted with DDM from C. tepidum membranes; RC-FMO2 at 3.08 Å (local 2.92 and 3.06 Å), RC-FMO1 at 3.49 Å; 20 mM Tris-Cl pH 8.0, 200 mM NaCl, 0.17 mM DDM; both purified.

Results are given in words; binding and its absence hold for the method and conditions named. Some binding calls cover weakened binding; strength is not graded here.

B1: PscB (protein, UniProt Q8KAY1 1-231)
chain: MAEPVENKNQAPAPGAKVPPKGAPAAPKAGAPAAPKGPVAPKAGAPAAKTGASAAKQAGKPRLASLGVTLGRSGVRQESALPYVKPKAVPPPKPAAPAAKGAPAPKGAPAAPAAKAAPGAPVAKAAPKAKKHYFIIENLCVGCGLCLDKCPPKVNAIGYKFYGDVQEGGFRCYIDQAACISCSACFSGDECPSGALIEVLPDGEVLDFSYTPPERLDFDLRFLHRFHREAR
Regarding B1, the binding result is reported as “binds”.
